Measurements reported in the supplement of paper PMC11237882.
The list shows a part of the results. Values are worked out from sequencing counts and are noisy.

T1: Homer1 EVH1 domain
T1 chain: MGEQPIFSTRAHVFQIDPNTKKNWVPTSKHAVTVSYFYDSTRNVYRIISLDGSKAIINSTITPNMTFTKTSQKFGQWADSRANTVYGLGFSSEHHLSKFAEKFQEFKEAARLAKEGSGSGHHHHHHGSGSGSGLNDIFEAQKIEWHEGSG


Target: T1, Homer1 EVH1 domain
Test: enrichment score (AUC of log2 frequency ratio across FACS sorting rounds) (log2 AUC); higher = stronger enrichment for Homer1 EVH1 binding

Row | Binder | enrichment score
1 | SQGYPSPLGGSEHASSPVPASGPSSGPQMSSGPGGA | -0.811
2 | LGPVPILHIKSQLWLLVLILVVSGLSAGMSIIPTFP | 1.03
3 | NYTGKLNISADKENSIKLTSVVFILICCFIILENIF | 0.566
4 | MAAAAIPALLLCLPLLFLLFGWSRARRDDPHSLCYD | 3.34
5 | VTPIIVWSIINFFERLCLTWMFFFMMCVAERTYKQR | 1.06
6 | PWLHFVIAFPRSYKVFIILWTVYLWMSLLKTILWSR | 1.69
7 | SFQQWYHLPCRHILALLHTSQQPVGEAMVCRRWQKK | 0.601
8 | LHSSTLWALFVVNLYMFSNCLIVYVLYLQDKTVQFW | -0.0859
9 | VLGWNCLAERAACSVVRPLARSHVALLSAAFFMVFG | 2.31
10 | ASPSEFSPPGGPVPLSVLILSLLVLFFSAVFVAAGP | 2.95
11 | MWCIVLFSLLAWVYAEPTMYGEILSPNYPQAYPSEV | 2.74
12 | MALIRKTFYFLFAMFFILVQLPSGCQAGLDFSQPFP | -1.99
